The list is a part of this screen's results and no random one: it gathers tests that were run many times, whatever their T/C, doses with no T/C, and many T/C values between a quarter and a half above the control. Other doses and runs of a compound stand elsewhere. T/C gives the treated animals as a percentage of the vehicle group. Schedules are NCI's codes, taken here to give the interval after Q, in days (D) or hours (H), and the number of doses after X. Some T/C values carry the count of animals alive at the toxicity check (mostly the fifth day); without a count, all were alive then. Some entries were tested several times; their values stand side by side, smallest first. Some values lie below zero, which means that the treated tumours became smaller. Some entries give survivors of the animals treated and no T/C: the source files T/C as zero there, which appears to mark a toxic dose or a test without result, not a measured value. Survivors were counted at the toxicity check, usually on the fifth day, unless a day is given; later deaths do not show.
System: nude mice, A549 intrarenal xenograft, tumor weight change
Experiment: NCI In Vivo Anticancer Drug Screen. Data for tumor model A549 Human Adenocarcinoma of Lung with characteristics of Type II Alveolar Epithelial cells (intrarenal inoculation) in NU/NU BALB/C (nude) mice
Conditions: T/C endpoint: mean tumor weight change, schedule: Q04DX003 (ip), higher T/C = larger tumour; for T/C: evaluated on day 12
Outline: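 Mice bearing transplantable tumors were treated and survival or tumor size recorded. Values are given as treated-group measurement divided by vehicle-control measurement (T/C).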

[1] = dose: 16.0 mg/kg/injection, vehicle: saline
[2] = dose: 400.0 mg/kg/injection, vehicle: saline with Tween-80
[3] = dose: 800.0 mg/kg/injection, vehicle: saline with Tween-80
[4] = dose: 300.0 mg/kg/injection, vehicle: Klucel (hydroxypropylcellulose) (HPC)
[5] = dose: 600.0 mg/kg/injection, vehicle: Klucel (hydroxypropylcellulose) (HPC)
[6] = dose: 1200.0 mg/kg/injection, vehicle: Klucel (hydroxypropylcellulose) (HPC)
[7] = dose: 8.0 mg/kg/injection, vehicle: saline with Tween-80
[8] = dose: 120.0 mg/kg/injection, vehicle: saline
[9] = dose: 1200.0 mg/kg/injection, vehicle: saline with Tween-80
[10] = dose: 800.0 mg/kg/injection, vehicle: saline

For `Cc1c(N)nc([C@H](CC(N)=O)NC[C@H](N)C(N)=O)nc1C(=O)N[C@H](C(=O)N[C@H](C)[C@@H](O)[C@H](C)C(=O)N[C@H](C(=O)NCCc1nc(-c2nc(C(=O)NCCC[S+](C)C)cs2)cs1)[C@@H](C)O)C(OC1OC(CO)C(O)C(O)C1OC1OC(CO)C(O)C(OC(N)=O)C1O)c1cnc[nH]1` (stereo not given in full), the T/C [1] was 47, 48, 58, 64, 65, 103, 140 % of control, the T/C (dose: 24.0 mg/kg/injection, vehicle: saline) was 18, 24, 32, 35, 57, 59, 66 % of control [5 of 6 alive on day 12] and the T/C (dose: 36.0 mg/kg/injection, vehicle: saline) was 3, 16, 30, 44 [3 of 4 alive on day 12], 45, 61, 102 % of control.

With `O=C1c2cccc(NCCCNCCO)c2C(=O)c2cccc(NCCCNCCO)c21` the survivor count (dose: 50.0 mg/kg/injection, vehicle: acid diluted with saline) was 1 of 6 on day 12.

`Cc1ccc(C(=Nc2ccccc2)N=P(c2ccccc2)(c2ccccc2)c2ccccc2)cc1` was tested, and the T/C (dose: 50.0 mg/kg/injection, vehicle: saline with Tween-80) was 126 % of control and the survivor count (dose: 200.0 mg/kg/injection, vehicle: saline with Tween-80) was 3 of 6 on day 12.

For `Cc1ccoc1`, the survivor count [2] was 0 of 6 on day 12.

In the case of `CC1=CCCC2C1(C)CCC(C)C2(C)Cc1cc(O)ccc1O` (stereo not given), the T/C (dose: 100.0 mg/kg/injection, vehicle: Klucel (hydroxypropylcellulose) (HPC)) is reported as 129 % of control.

`Cc1nc2c(N)cc(Cl)cc2[nH]1` was tested, and the survivor count [2] was 0 of 6 on day 12 and the survivor count [3] was 0 of 6 on day 12.

For `CCCCCNc1ncnc2c(C)[nH]nc12`, the survivor count [4] was 0 of 6 on day 12.

For `O=C1CC2(C(=O)N1CN1CCOCC1)c1ccccc1-c1ccccc12`, the survivor count [5] was 0 of 6 on day 12, the survivor count (dose: 1000.0 mg/kg/injection, vehicle: Klucel (hydroxypropylcellulose) (HPC)) was 0 of 6 on day 12 and the survivor count [6] was 0 of 6 on day 12.

In the case of `CO[C@@H]1C2=CC=CC=C[C@H]2n2c(=O)n(C)c(=O)n21`, the survivor count (dose: 300.0 mg/kg/injection, vehicle: other) is reported as 3 of 6 on day 12, the survivor count (dose: 300.0 mg/kg/injection, vehicle: water) is reported as 2 of 6 on day 12 and the survivor count (dose: 600.0 mg/kg/injection, vehicle: other) is reported as 0 of 6 on day 12.

In the case of `CCC1(O)C(=O)OCc2c1cc1n(c2=O)Cc2cc3cc4c(cc3nc2-1)OCO4` (stereo not given), the survivor count [7] is reported as 0 of 6 on day 12, the survivor count (dose: 16.0 mg/kg/injection, vehicle: saline with Tween-80) is reported as 1 of 6 on day 12 and the survivor count (dose: 32.0 mg/kg/injection, vehicle: saline with Tween-80) is reported as 0 of 6 on day 12.

In the case of `CCN(CC)CC(C)(C)C(=O)/C=C/c1ccc(/C=C/C(=O)C(C)(C)CN(CC)CC)cc1`, the survivor count [8] is reported as 0 of 6 on day 12.

With `Cc1cc(Br)c2nsnc2c1[N+](=O)[O-]` the survivor count [9] was 3 of 6 on day 12.

For `CC(=O)/C(=C\c1ccc(Cl)c(Cl)c1)C(=O)CCN(C)C`, the survivor count (dose: 100.0 mg/kg/injection, vehicle: saline) was 0 of 6 on day 12.

In the case of `CCCCCC[Se][Se]CCCCCC`, the survivor count (dose: 75.0 mg/kg/injection, vehicle: Klucel (hydroxypropylcellulose) (HPC)) is reported as 2 of 6 on day 12, the survivor count (dose: 150.0 mg/kg/injection, vehicle: Klucel (hydroxypropylcellulose) (HPC)) is reported as 0 of 6 on day 12 and the survivor count [4] is reported as 0 of 6 on day 12. For the same compound, the survivor count [5] was 0 of 6 on day 12.

`O=C(Nc1cccc(O)c1)C(Cl)=C(Cl)Cl` was tested, and the survivor count (dose: 12.5 mg/kg/injection, vehicle: DMSO) was 2 of 6 on day 12, the survivor count (dose: 50.0 mg/kg/injection, vehicle: other) was 3 of 6 on day 12 and the survivor count (dose: 83.0 mg/kg/injection, vehicle: other) was 0 of 6 on day 12. The survivor count (dose: 100.0 mg/kg/injection, vehicle: DMSO) was 0 of 6 on day 12 and the survivor count (dose: 139.0 mg/kg/injection, vehicle: other) was 1 of 6 on day 12.

With `N[C@@H](Cc1ccc(N(CCCl)CCCl)cc1)C(=O)O` the T/C (dose: 4.0 mg/kg/injection, vehicle: saline) was -24, -2, 22, 27 % of control, the T/C (dose: 6.0 mg/kg/injection, vehicle: saline) was -43, -30, 12, 24 % of control and the T/C (dose: 9.0 mg/kg/injection, vehicle: saline) was -52 [5 of 6 alive on day 12], -13, 8, 11 % of control.

For `COc1cc2c[n+](C)c3c(c2cc1OC)Cc1cc2c(cc1-3)OCO2`, the survivor count (dose: 300.0 mg/kg/injection, vehicle: saline with Tween-80) was 0 of 6 on day 12.

In the case of `CN=C(NC)c1ccc(NC(=O)/C=C\c2ccc(/C=C/C(=O)Nc3ccc(C(=NC)NC)cc3)cc2)cc1`, the survivor count (dose: 25.0 mg/kg/injection, vehicle: Klucel (hydroxypropylcellulose) (HPC)) is reported as 0 of 6 on day 12.

For `Nc1ccc2ccc(NS(=O)(=O)N3CCCCC3)cc2c1`, the survivor count [9] was 2 of 6 on day 12.

With `c1ccc2[nH]c(CN(CCN(Cc3nc4ccccc4[nH]3)Cc3nc4ccccc4[nH]3)Cc3nc4ccccc4[nH]3)nc2c1` the survivor count (dose: 50.0 mg/kg/injection, vehicle: DMSO) was 1 of 6 on day 12.

In the case of `Cc1cc(O)c2c(c1O)C(=O)C13C(=C2O)C(=O)C2C(O)C1C1C(O)C3C(=O)C3=C(O)c4c(O)cc(C)c(O)c4C(=O)C321` (stereo not given), the T/C (dose: 4.0 mg/kg/injection, vehicle: saline with Tween-80) is reported as 148 % of control and the survivor count [7] is reported as 3 of 6 on day 12.

`Nc1n[nH]c2ccccc12` was tested, and the survivor count [9] was 0 of 6 on day 12.

`CNC(=O)N(C)N=NCCCl` was tested, and the survivor count [2] was 3 of 6 on day 12 and the survivor count [3] was 0 of 6 on day 12.

`O=C1CN(CO)C(=O)N1CO` was tested, and the survivor count (dose: 400.0 mg/kg/injection, vehicle: saline) was 1 of 5 on day 12 and the survivor count [10] was 0 of 6 on day 12.

In the case of `c1ccc2c3c(c4c(c2c1)CN(C1CCCCC1)CO4)OCN(C1CCCCC1)C3`, the survivor count (dose: 75.0 mg/kg/injection, vehicle: distilled water + Tween-80) is reported as 2 of 6 on day 12, the survivor count (dose: 150.0 mg/kg/injection, vehicle: distilled water + Tween-80) is reported as 1 of 6 on day 12 and the survivor count (dose: 300.0 mg/kg/injection, vehicle: distilled water + Tween-80) is reported as 0 of 6 on day 12.

`S=C(NCNC(=S)c1ccncc1)c1ccncc1` was tested, and the survivor count [9] was 0 of 6 on day 12.

In the case of `CN(C)c1ccc2c(SCC(=O)OCC(=O)[C@@]3(O)CC[C@H]4[C@@H]5CCC6=CC(=O)C=C[C@]6(C)[C@H]5C(=O)C[C@@]43C)c3ccc(N(C)C)cc3nc2c1`, the survivor count [5] is reported as 1 of 6 on day 12.

In the case of `CN(C)c1ccc2c(Nc3ccc(NS(C)(=O)=O)cc3)c3ccc(N(C)C)cc3nc2c1`, the survivor count (dose: 400.0 mg/kg/injection, vehicle: Klucel (hydroxypropylcellulose) (HPC)) is reported as 3 of 6 on day 12.

In the case of `C=C(c1ccc(OC)c(OC)c1)c1nccc2cc(OC)c(OC)cc12`, the survivor count [5] is reported as 2 of 6 on day 12 and the survivor count [6] is reported as 0 of 6 on day 12.

In the case of `N#Cc1c(N)[nH]c2ccc(Sc3ccccc3)cc12`, the T/C [8] is reported as 133 % of control.

In the case of `COc1cccc2c1C(=O)c1c(O)c3c(c(O)c1C2=O)C[C@@](O)(C(=O)CO)C[C@@H]3OC1CC(N)C(O)C(C)O1` (stereo not given in full), the survivor count [1] is reported as 0 of 6 on day 12 and 3 of 6 on day 12.

With `ClC1(Cl)Cc2ccccc21` the survivor count [2] was 3 of 6 on day 12 and the survivor count [3] was 0 of 6 on day 12.

`O=C(Nc1cc(Cl)ccc1C(=O)O)c1cccc(C[n+]2ccccc2)c1` was tested, and the survivor count [9] was 1 of 6 on day 12.

`CC#CCOCC(O)CCl` (stereo not given) was tested, and the survivor count [10] was 2 of 6 on day 12.

From PubChem BioAssay AID278 (DTP/NCI, 2004)
